Data as given in the supplement of paper PMC4604168 (melanoma cell lines).
Some of the results follow. Repeats are few or missing, and single values can be far off.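 Imaging used 1,536-well plates; nuclei positive for cleaved PARP by antibody were divided by total DNA-stained nuclei to yield the apoptosis fraction. Doses for screening kept most cells viable, and cell lines differ markedly in resting and induced cleaved-PARP levels.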

Assays:
Assay in all cases: cleaved PARP positive nuclei fraction relative to DMSO control; melanoma cells; higher = more apoptosis
Details in all cases: library dose: low library concentration; 72 h
501Mel = test system: 501Mel
A101D = test system: A101D
A2058 = test system: A2058
C32 = test system: C32
CBRC008 = test system: CBRC008 (line from a melanoma biopsy)
CBRC014 = test system: CBRC014 (line from a melanoma biopsy)
CBRC016 = test system: CBRC016 (line from a melanoma biopsy)
CBRC017 = test system: CBRC017 (line from a melanoma biopsy)

| Compound | cleaved PARP positive nuclei fraction (501Mel) [%] | cleaved PARP positive nuclei fraction (A101D) [%] | cleaved PARP positive nuclei fraction (A2058) [%] | cleaved PARP positive nuclei fraction (C32) [%] | cleaved PARP positive nuclei fraction (CBRC008) [%] | cleaved PARP positive nuclei fraction (CBRC014) [%] | cleaved PARP positive nuclei fraction (CBRC016) [%] | cleaved PARP positive nuclei fraction (CBRC017) [%] |
| --- | --- | --- | --- | --- | --- | --- | --- | --- |
| O=c1[nH]nc(Sc2ncc([N+](=O)[O-])s2)n1-c1ccc2c(c1)OCCO2 + CCc1ccc(CCOc2ccc(CC3SC(=O)NC3=O)cc2)nc1 [pioglitazone] (first compound 0.2 µM, partner dose 2 µM) | 59.5 | 46.4 | 143 | 67.2 | 70.7 | 97.8 | 40.4 | 85.8 |
| Cc1cc(Nc2cc(N3CCN(C)CC3)nc(Sc3ccc(NC(=O)C4CC4)cc3)n2)n[nH]1 [Tozasertib] + COc1ccc(-c2ccc3c(N4CCOCC4)nc(N4C[C@@H](C)O[C@@H](C)C4)nc3n2)cc1CO [KU0063794] (first compound 0.006 µM, partner dose 0.02 µM) | 66.3 | 45.6 | 91.2 | 90.1 | 103 | 124 | 22.4 | 248 |
| Cc1ccc(Nc2nccc(N(C)c3ccc4c(C)n(C)nc4c3)n2)cc1S(N)(=O)=O [Pazopanib] + CCN(CC)CCCCNc1ncc2cc(-c3cc(OC)cc(OC)c3)c(NC(=O)NC(C)(C)C)nc2n1 [PD173074] (first compound 0.4 µM, partner dose 0.1 µM) | 70.1 | 23.7 | 49.7 | 145 | 129 | 119 | 57.7 | 141 |
| CCCCCCCCCCCCCCCCCCOP(=O)([O-])OC1CC[N+](C)(C)CC1 [Perifosine] + O=C(O)C(=O)Nc1sc2c(c1C(=O)O)CCNC2 [TCS401] (first compound 0.4 µM, partner dose 1.66667 µM) | 72.9 | 29.6 | 35 | 34 | 89.8 | 88.8 | 24.5 | 73 |
| CCCCCCCCCCCCCCCCCCOP(=O)([O-])OC1CC[N+](C)(C)CC1 [Perifosine] + COc1cc2ncnc(Nc3ccc(Oc4ccccc4)cc3)c2cc1OC [SrcI1] (first compound 0.4 µM, partner dose 2 µM) | 99.4 | 16.1 | 149 | 87.4 | 155 | 147 | 81.2 | 118 |
| CCCCCCCCCCCCCCCCCCOP(=O)([O-])OC1CC[N+](C)(C)CC1 [Perifosine] + Cc1cc([N+](=O)[O-])ccc1NS(=O)(=O)c1cc(Cl)ccc1Cl [FH535] (first compound 0.4 µM, partner dose 1 µM) | 72 | 8.23 | 100 | 140 | 510 | 256 | 1430 | 257 |
| COc1cc([C@@H]2c3cc4c(cc3[C@@H](O[C@@H]3O[C@@H]5CO[C@@H](C)O[C@H]5[C@H](O)[C@H]3O)[C@H]3COC(=O)[C@H]23)OCO4)cc(OC)c1O [etoposide] + CCc1ccc(CCOc2ccc(CC3SC(=O)NC3=O)cc2)nc1 [pioglitazone] (first compound 0.02 µM, partner dose 2 µM) | 118 | 24 | 84.7 | 183 | 90.1 | 88.8 | 54.9 | 88.5 |
| N#CC[C@H](C1CCCC1)n1cc(-c2ncnc3[nH]ccc23)cn1 [ruxolitinib] + Cn1cc(/C=C2\C(=O)Nc3cccnc32)c2ccccc21 [GW441756] (first compound 1 µM, partner dose 0.4 µM) | 77.2 | 58.4 | 58.1 | 39.2 | 212 | 94.2 | 127 | 83.3 |
| CCCCCCCCCCCCCCCCCCOP(=O)([O-])OC1CC[N+](C)(C)CC1 [Perifosine] + O=C1NC(=O)/C(=C/c2ccc(-c3ccc(F)cc3O)o2)S1 [AS252424] (first compound 0.4 µM, partner dose 1 µM) | 66.9 | 23 | 107 | 73.1 | 152 | 97.9 | 53.5 | 99.6 |
| O=C(/C=C/c1cccnc1)NCCCCC1CCN(C(=O)c2ccccc2)CC1 + O=S(=O)(c1ccccc1)N(CC(F)(F)F)c1ccc(C(O)(C(F)(F)F)C(F)(F)F)cc1 [T0901317] (first compound 0.01 µM, partner dose 1.4 µM) | 87.3 | 68.8 | 119 | 279 | 1900 | 117 | 957 | 365 |
| O=c1[nH]nc(Sc2ncc([N+](=O)[O-])s2)n1-c1ccc2c(c1)OCCO2 + CCN(CC)CCCCNc1ncc2cc(-c3cc(OC)cc(OC)c3)c(NC(=O)NC(C)(C)C)nc2n1 [PD173074] (first compound 0.2 µM, partner dose 0.1 µM) | 230 | 54.5 | 231 | 43.8 | 110 | 105 | 53.2 | 100 |
| Cc1ccc(Nc2nccc(N(C)c3ccc4c(C)n(C)nc4c3)n2)cc1S(N)(=O)=O [Pazopanib] + COc1ccc(COc2ccc(Cc3cnc(N)nc3N)cc2OC)cc1 [GW2580] (first compound 0.4 µM, partner dose 1 µM) | 74.6 | 19.2 | 78.9 | 18.3 | 259 | 87.8 | 93.5 | 219 |
| CCCCCCCCCCCCCCCCCCOP(=O)([O-])OC1CC[N+](C)(C)CC1 [Perifosine] + Oc1cc(-c2nc(-c3ccccc3)[nH]c2-c2ccncc2)ccc1Cl [L779450] (first compound 0.4 µM, partner dose 0.2 µM) | 36.3 | 30.8 | 71.1 | 93.5 | 152 | 127 | 39.1 | 76.5 |
| Cc1cc(Nc2cc(N3CCN(C)CC3)nc(Sc3ccc(NC(=O)C4CC4)cc3)n2)n[nH]1 [Tozasertib] + O=C(O)C(=O)Nc1sc2c(c1C(=O)O)CCNC2 [TCS401] (first compound 0.006 µM, partner dose 1.66667 µM) | 58.4 | 15.9 | 74.2 | 168 | 39.6 | 72.4 | 59.9 | 114 |
| Cc1cc(Nc2cc(N3CCN(C)CC3)nc(Sc3ccc(NC(=O)C4CC4)cc3)n2)n[nH]1 [Tozasertib] + O=c1cc(-c2cccc3c2Sc2ccccc2S3)oc(N2CCOCC2)c1 [KU55933] (first compound 0.006 µM, partner dose 1 µM) | 65.5 | 65.5 | 42.6 | 152 | 48.8 | 105 | 100 | 88.7 |
| Cc1cn(-c2cc(NC(=O)c3ccc(C)c(Nc4nccc(-c5cccnc5)n4)c3)cc(C(F)(F)F)c2)cn1 [nilotinib] + O=S(=O)(c1ccccc1)N(CC(F)(F)F)c1ccc(C(O)(C(F)(F)F)C(F)(F)F)cc1 [T0901317] (first compound 0.2 µM, partner dose 1.4 µM) | 93.2 | 40.5 | 53.2 | 166 | 229 | 91.4 | 65.2 | 86.4 |
| CCCCCCCCCCCCCCCCCCOP(=O)([O-])OC1CC[N+](C)(C)CC1 [Perifosine] + COc1ccc2c(c1)CCC1C2CCC2(C)C(NCCCCCCN3C(=O)C=CC3=O)CCC12 [U73122] (first compound 0.4 µM, partner dose 0.4 µM) | 68.8 | 34 | 482 | 167 | 146 | 112 | 146 | 88.8 |
| CC[C@]1(O)C[C@H]2CN(CCc3c([nH]c4ccccc34)[C@@](C(=O)OC)(c3cc4c(cc3OC)N(C=O)[C@H]3[C@@](O)(C(=O)OC)[C@H](OC(C)=O)[C@]5(CC)C=CCN6CC[C@]43[C@@H]65)C2)C1 [vincristine] + COc1cc2ncnc(Nc3ccc(Oc4ccccc4)cc3)c2cc1OC [SrcI1] (first compound 0.0001 µM, partner dose 2 µM) | 47.5 | 52.2 | 6680 | 124 | 198 | 136 | 81.2 | 113 |
| CC[C@]1(O)C[C@H]2CN(CCc3c([nH]c4ccccc34)[C@@](C(=O)OC)(c3cc4c(cc3OC)N(C=O)[C@H]3[C@@](O)(C(=O)OC)[C@H](OC(C)=O)[C@]5(CC)C=CCN6CC[C@]43[C@@H]65)C2)C1 [vincristine] + O=C(O)C(=O)Nc1sc2c(c1C(=O)O)CCNC2 [TCS401] (first compound 0.0001 µM, partner dose 1.66667 µM) | 83.6 | 57.8 | 415 | 131 | 149 | 114 | 187 | 93.5 |

Record cards, from the list above. Values in the order: cleaved PARP positive nuclei fraction (501Mel) [%]	cleaved PARP positive nuclei fraction (A101D) [%]	cleaved PARP positive nuclei fraction (A2058) [%]	cleaved PARP positive nuclei fraction (C32) [%]	cleaved PARP positive nuclei fraction (CBRC008) [%]	cleaved PARP positive nuclei fraction (CBRC014) [%]	cleaved PARP positive nuclei fraction (CBRC016) [%]	cleaved PARP positive nuclei fraction (CBRC017) [%]
COc1cc([C@@H]2c3cc4c(cc3[C@@H](O[C@@H]3O[C@@H]5CO[C@@H](C)O[C@H]5[C@H](O)[C@H]3O)[C@H]3COC(=O)[C@H]23)OCO4)cc(OC)c1O [etoposide] + CCc1ccc(CCOc2ccc(CC3SC(=O)NC3=O)cc2)nc1 [pioglitazone] (first compound 0.02 µM, partner dose 2 µM) in the list: 118	24	84.7	183	90.1	88.8	54.9	88.5
N#CC[C@H](C1CCCC1)n1cc(-c2ncnc3[nH]ccc23)cn1 [ruxolitinib] + Cn1cc(/C=C2\C(=O)Nc3cccnc32)c2ccccc21 [GW441756] (first compound 1 µM, partner dose 0.4 µM) in the list: 77.2	58.4	58.1	39.2	212	94.2	127	83.3
